Results reported in patent US8378115B2, “Monomethine dyes” (Thermo Fisher Scientific (Milwaukee) LLC, priority 2007, dated 2013).

What was measured:
Format in all cases: binding
[1] = test system: 40-mer ds-DNA; experiment: Absorption spectra of dye-DNA complex, 40-mer ds-DNA
[2] = test system: λ DNA; experiment: Absorption spectra of dye-DNA complex, λ DNA; conditions: 8 μM dye, 8 μM DNA, TE buffer (Table 2)
[3] = test system: 40-mer ss-DNA; experiment: Absorption spectra of dye-DNA complex, 40-mer ss-DNA
[4] = test system: rRNA; experiment: Absorption spectra of dye in the presence of rRNA; conditions: rRNA (Table 4)
[5] = test system: λDNA; experiment: Fluorescence enhancement of dye with λDNA; conditions: λ DNA (Table 3)
Protocol: (§1) Stock solutions (8 mM) of each dye were prepared by dissolving each compound in dimethylsulfoxide (DMSO). Stock dye solutions were diluted to a desired concentration in tris-EDTA (TE) buffer (10 mM Tris, 1 mM EDTA, pH 8.0) immediately prior to use.
(§2) Stock solutions of λDNA and 40mer synthetic oligonucleotides (dsDNA and ssDNA), each at a concentration of 40 μM, were prepared in TE buffer. All DNA concentrations described are in base pairs of nucleotides. The DNA stock solutions were diluted to a desired concentration in TE buffer before being mixed with diluted dye solutions.
(§3) Fluorescence enhancement measurements of each dye were obtained by incubating dyes with λDNA, 40mer dsDNA, or 40mer ssDNA at a final concentration of 0.8 μM dye and 3.2 μM DNA for one minute. Fluorescence scans of the samples were performed with excitation wavelengths corresponding to the absorption maxima of the dyes. The resulting fluorescence intensities were compared to fluorescence intensities of Thiazole Orange (TO) and a compound equivalent to SYBR Green without the side chain (V02-06101), shown below,
(§4) [drawing 15] binding to λDNA, 40mer dsDNA, or 40mer ssDNA at a final concentration of 0.8 μM TO and 3.2 μM DNA for one minute, the same as for the tested dyes. The discrimination ratio between dsDNA and ssDNA was calculated by comparing the fluorescence intensities.

[6] = test system: 40mer dsDNA; experiment: Fluorescence enhancement of dye with 40mer dsDNA
Protocol: as §1, §2, §3, §4

[7] = test system: 40mer ssDNA; experiment: Fluorescence of dye with 40mer ssDNA; conditions: 40-mer ss-DNA (Table 5)
[8] = test system: rRNA; experiment: Fluorescence of dye with rRNA; conditions: for λem: rRNA (Table 5)
[9] = 40-mer ds-DNA, 8 μM dye, 8 μM DNA, TE buffer (Table 2)
[10] = 40-mer ss-DNA, 8 μM dye, 8 μM DNA, TE buffer (Table 2)

Structure (SMILES) | ε ([1]; 40-mer ds-DNA (Table 4)) | λex ([1]; 40-mer ds-DNA (Table 4)) | ε [1, 9] | λex [1, 9] | λex [2] | λex ([3]; 40-mer ss-DNA (Table 4)) | λex [3, 10] | ε [4] | λex [4] | λem [5] [nm] | λem ([6]; 40-mer ds-DNA (Table 3)) [nm] | λem ([6]; 40-mer ds-DNA (Table 5)) [nm] | maximum emission of dye/DNA complex ([6]; FIG. 9) [nm] | λem [7] [nm] | red shift between RNA and DNA binding [8] [nm] | fluorescence of dye by itself ([8]; FIG. 9) | maximum emission in the presence of rRNA ([8]; FIG. 9) [nm] | λem [8] [nm]
CCN1C(=Cc2cc(-c3ccccc3)[o+]c3cc(OC)ccc23)Sc2ccccc21 [Dye V02-06132] | 14,800 | 488 nm | 14,800 | 488 nm | 494 nm | 494 nm | 487 nm | 24,235 | 475 nm | – | – | – | – | – | – | – | – | –
CCN(CC)c1ccc2c(/C=C3\Sc4ccccc4N3C)cc(N3CC[N+](C)(CCO)CC3)[o+]c2c1 [Dye V11-03001] | 41,096 | 489 nm | 41,096 | 489 nm | 489 nm | 489 nm | 489 nm | 36,499 | 552 nm | 540 | 540 | 540 | 540 | 540 | 12 | not fluorescent by itself | 552 | 552
CCN(CC)c1ccc2c(N(C)CCCN(C)C)cc(/C=C3\Sc4ccccc4N3C)[o+]c2c1 [Dye V02-07108] | 18,348 | 468 nm | 18,340 | 468 nm | 496 nm | 475 nm | 475 nm | 21,140 | 479 nm | 564 | 569 | 565 | – | 572 | – | – | – | 568
CCN(CC)c1ccc2c(C=C3Sc4ccccc4N3CC)cc(C(C)(C)C)[o+]c2c1 [Dye V02-06124] | – | – | 22,063 | 521 nm | 526 nm | – | 509 nm | – | – | 568 | 568 | – | – | – | – | – | – | –
CCN(CC)c1ccc2c(c1)O/C(=C\c1cc(N(C)CCCN(C)C)[o+]c3cc(N(CC)CC)ccc13)C=C2C [Dye V13-01026] | – | – | 25,110 | 550 (593s) nm | 545 (593s) nm | – | 550 (593s) nm | – | – | 635 | 635 | – | – | – | – | – | – | –
CCN(CC)c1ccc2c(/C=C3\Oc4ccccc4N3CC)cc(-c3ccccc3)[o+]c2c1 [Dye V02-06188] | – | – | 19,755 | 508 (530s) nm | 508 (530s) nm | – | 508 (530s) nm | – | – | 580 | 580 | – | – | – | – | – | – | –
CCN(CC)c1ccc2c(/C=C3\Sc4ccccc4N3C)cc(N(C)CCCN(C)C)[o+]c2c1 [Dye V02-07027] | 24,519 | 478 nm | 24,519 | 478 nm | 480 nm | 456 nm | 456 nm | – | – | 515 | 515 | 515 | – | 514 | – | – | – | –
CCN(CC)c1ccc2c(/C=C3\Sc4ccccc4N3CC)cc(-c3ccccc3)[o+]c2c1 [Dye V02-06187] | – | – | 15,800 | 529 (560s) nm | 531 (560s) nm | – | 529 (560s) nm | – | – | 610 | 610 | – | – | – | – | – | – | –
CCN1c2cc3[o+]c(N(C)CCCN(C)C)cc(/C=C4\Sc5ccccc5N4C)c3cc2C(C)=CC1(C)C [Dye V12-02144] | 22,356 | 488 nm | 22,356 | 488 nm | 492 nm | 448 nm | 448 nm | 21,445 | 449 (493 nm | 546 | 548 | 546 | – | 553 | – | – | – | 551
CCN(CC)c1ccc2c(/C=C3\Sc4ccccc4N3C)cc(N(C)CCC[N+](C)(C)C)[o+]c2c1 [Dye V11-02190] | 15,024 | 485 nm | 15,024 | 485 nm | 485 nm | 485 nm | 485 nm | 13,134 | 485 nm | 532 | 520 | 520 | – | 516 | – | – | – | 516
CCN(CC)c1ccc2c(/C=C3\Sc4ccccc4N3C)cc(N3CCN(CCO)CC3)[o+]c2c1 [Dye V13-01184] | 32,935 | 476 nm | 32,935 | 476 nm | 481 nm | 443 nm | 443 nm | 28,940 | 442 nm | 540 | 540 | 540 | – | 544 | – | – | – | 549
CN1C(=Cc2cc[n+](C)c3ccccc23)Sc2ccccc21 [TO, Thiazole Orange, reference compound] | 32,613 | 502 (485s) nm | 32,613 | 502 (485s) nm | 504 (485s) nm | 475 (499s) nm | 475 (499s) nm | – | – | 530 | 530 | 530 | – | 535 | – | – | – | 533
CCCN(CCCN(C)C)C1=C/C(=C\c2sc3ccccc3[n+]2C)c2ccccc2N1c1ccccc1 [SYBR Green, reference compound] | 69,225 | 494 nm | 69,225 | 494 nm | 492 nm | 494 nm | 494 nm | – | – | 524 | 524 | 524 | – | 533 | – | – | – | 525
CCN(CC)c1ccc2c(C=C3Oc4ccccc4N3CC)cc(C(C)(C)C)[o+]c2c1 [Dye V02-06136] | – | – | 29,450 | 492 nm | 494 nm | – | 487 nm | – | – | 533 | 533 | – | – | – | – | – | – | –
CCN(CCCN(C)C)c1ccc2c(/C=C3\Sc4ccccc4N3CC)cc(C(C)(C)C)[o+]c2c1 [Dye V02-07015] | 20,520 | 516 nm | 20,520 | 516 nm | 525 nm | 503 nm | 503 nm | – | – | 558 | 558 | 558 | – | 561 | – | – | – | –
